PubChem BioAssay AID1259254 | NCATS – 2017
The whole screen tested about 59,000 reagents; this is a random part of them. Of all reagents, about 1,550 (2.6%) got an active call. 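G2 share is only a proxy for re-replication; each gene was hit by three separate siRNAs, and active genes were retested.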 Entries without a mark were called inactive. Reagents against one gene are numbered here. Further read-outs or replicates are left out here. Not stated in the record: the amount of reagent.

- Purpose: 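Genome-wide screen for genes that prevent DNA re-replication in cancer cells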 (primary screen)
- Cell system: human HCT116 colorectal cancer cells
- Reagents: single siRNA against human genes
- Time to read-out: 3 days
- Measured: 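Nuclei stained with Hoechst and imaged; cell-cycle phase assigned by DNA content; G2 share scaled per plate, non-targeting siRNA 0%, GMNN siRNA 100%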
- Direction: G2 robust z-score: higher = more G2 cells, more excess DNA replication
- Hit rule: 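An siRNA counts as active if its G2 robust z-score lies at least 5 MADs above the screen median; here such calls match roughly 38% of GMNN control or more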

no.	gene	reagent no.	G2 robust z-score
1	C9	1	0.246
2	C9	2	0.635
3	C9	3	0.137
4	UNC13D	1	-0.857
5	UNC13D	2	-0.0867
6	UNC13D	3	0.263
7	C9orf50	1	-0.411
8	C9orf50	2	0.795
9	C9orf50	3	1.54
10	CAMKK2	1	-1.62
11	CAMKK2	2	-0.286
12	CAMKK2	3	-0.127
13	GARIN5B	1	0.724
14	GARIN5B	2	5.12 (active)
15	GARIN5B	3	0.000659
16	CHDH	1	-1.36
17	CHDH	2	-0.0618
18	CHDH	3	0.173
19	NDE1	1	-1.33
20	NDE1	2	1.78
21	NDE1	3	-0.0966
22	RIIAD1	1	-0.568
23	RIIAD1	2	1.23
24	RIIAD1	3	0.664
25	PABPC4	1	-0.522
26	PABPC4	2	-0.205
27	PABPC4	3	-0.184
28	RDH12	1	0.341
29	RDH12	2	2.11
30	RDH12	3	0.2
31	DCLRE1C	1	-0.836
32	DCLRE1C	2	-0.544
33	DCLRE1C	3	-0.944
34	GPR52	1	1.49
35	GPR52	2	-0.429
36	GPR52	3	1.06
37	TTC1	1	-0.245
38	TTC1	2	-0.496
39	TTC1	3	-1.2
40	KRTAP19-3	1	8.16 (active)
41	KRTAP19-3	2	1.9
42	KRTAP19-3	3	-1.9
43	NPR3	1	0.269
44	NPR3	2	-0.504
45	NPR3	3	2.07
46	NPR3	4	0.334
47	NPR3	5	-0.456
48	NPR3	6	1.05
49	SLC4A4	1	1.46
50	SLC4A4	2	-1.11
51	SLC4A4	3	-0.214
52	ATP6V1G1	1	-0.404
53	ATP6V1G1	2	-0.474
54	ATP6V1G1	3	8.27 (active)
55	CIAO2A	1	-0.122
56	CIAO2A	2	0.491
57	CIAO2A	3	-0.105
58	POU6F2	1	-0.273
59	POU6F2	2	-0.97
60	POU6F2	3	-0.376
61	HMGCLL1	1	-0.775
62	HMGCLL1	2	0.476
63	HMGCLL1	3	0.434
64	LOXL2	1	-0.141
65	LOXL2	2	0.486
66	LOXL2	3	-1.25
67	LDHAL6A	1	0.596
68	LDHAL6A	2	1.15
69	LDHAL6A	3	1.73

Records listed above called active:
gene	reagent no.	G2 robust z-score
GARIN5B	2	5.12 (active)
KRTAP19-3	1	8.16 (active)
ATP6V1G1	3	8.27 (active)
